The list is a part of this screen's results and no random one: it is rich in T/C values a quarter to a half above the control, in often repeated tests (any T/C) and in doses without a T/C. Other doses and runs of a compound stand elsewhere. T/C is the treated group as % of the vehicle group. Some doses have a count of surviving animals in place of a T/C: the source holds a T/C of zero for them, seemingly a mark for toxic or unscored doses. Some survivor counts are full or nearly so, which does not show that the dose was tolerated: the source hardly ever lists a survival T/C far under the control, and the zero likely stands for such cases as well. Counts of survivors are from the toxicity check (mostly the fifth day) where no day follows; animals may have died later. Schedules are NCI's codes, read here as Q, the interval in days (D) or hours (H), X, the number of doses. Some schedule codes hold Z or #, which are not explained here. Where survival is the endpoint, the PubChem record calls one and a half times the control and up active, and a quarter to a half above the control has no call in these data; cut-offs in other NCI protocols can differ. Some doses were run more than once; the values are given in rising order. Some T/C values are followed by the survivors on the day toxicity was checked, most often the fifth; where none is given, no animal had died by that day.
System: L1210 leukemia ip in BDF1 mice, survival T/C
Assay: NCI In Vivo Anticancer Drug Screen. Data for tumor model L1210 Leukemia (intraperitoneal) in B6D2F1 (BDF1) mice
Settings: T/C endpoint: mean survival time, higher T/C = longer survival
[1] = dose: 15.0 mg/kg/injection, schedule: Q01DX Z (ip), vehicle: methylcellulose (MC)
[2] = dose: 100.0 mg/kg/injection, schedule: Q01DX009 (ip), vehicle: saline with Tween-80
[3] = dose: 200.0 mg/kg/injection, schedule: Q01DX009 (ip), vehicle: saline with Tween-80
[4] = dose: 400.0 mg/kg/injection, schedule: Q01DX009 (ip), vehicle: saline with Tween-80
[5] = dose: 100.0 mg/kg/injection, schedule: Q01DX009 (ip), vehicle: Klucel (hydroxypropylcellulose) (HPC)
[6] = dose: 400.0 mg/kg/injection, schedule: Q01DX001 (ip), vehicle: carboxymethylcellulose (CMC)
[7] = dose: 400.0 mg/kg/injection, schedule: Q04DX003 (ip), vehicle: Klucel (hydroxypropylcellulose) (HPC)
[8] = dose: 400.0 mg/kg/injection, schedule: Q04DX003 (ip), vehicle: saline with Tween-80
[9] = dose: 200.0 mg/kg/injection, schedule: Q01DX001 (ip), vehicle: other

CN=C(NC)c1ccc(NC(=O)c2ccc(C(=O)Nc3ccc(C(=NC)NC)cc3)cc2)cc1
T/C (dose: 3.75 mg/kg/injection, schedule: Q01DX Z (ip), vehicle: methylcellulose (MC)): 135 % of control | T/C (dose: 7.5 mg/kg/injection, schedule: Q01DX Z (ip), vehicle: methylcellulose (MC)): 143 and 146 % of control | T/C [1]: 141 % of control | survivor count [1]: 0 of 6 | survivor count (dose: 30.0 mg/kg/injection, schedule: Q01DX Z (ip), vehicle: methylcellulose (MC)): 0 of 6 | survivor count (dose: 60.0 mg/kg/injection, schedule: Q01DX Z (ip), vehicle: methylcellulose (MC)): 0 of 6 | survivor count (dose: 120.0 mg/kg/injection, schedule: Q01DX Z (ip), vehicle: methylcellulose (MC)): 0 of 6 | T/C (dose: 960.0 mg/kg/injection, schedule: Q01DX Z (oral), vehicle: carboxymethylcellulose (CMC)): 127 % of control

O=C(Nc1cc(S(=O)(=O)O)cc2cc(S(=O)(=O)O)c(N=Nc3ccc([As](=O)(O)O)cc3)c(O)c12)c1ccc([N+](=O)[O-])cc1
survivor count (dose: 100.0 mg/kg/injection, schedule: Q04DX003 (ip), vehicle: saline sonified): 3 of 6 | survivor count (dose: 400.0 mg/kg/injection, schedule: Q04DX003 (ip), vehicle: saline sonified): 3 of 6

O=C(Nc1ccc(S(=O)(=O)F)cc1)/C(=C/c1ccc([N+](=O)[O-])cc1)c1ccccc1
survivor count [2]: 5 of 6 | survivor count [3]: 4 of 6 | survivor count [4]: 1 of 6

O=C(O)/C(=C\c1ccccc1Cl)c1ccccc1
survivor count (dose: 400.0 mg/kg/injection, schedule: Q04DX002 (ip), vehicle: Klucel (hydroxypropylcellulose) (HPC)): 1 of 3

CC1(C)OC2C(CNCCO)OC(OCc3ccccc3)C2O1 (stereo not drawn)
survivor count (dose: 400.0 mg/kg/injection, schedule: Q04DX003 (ip), vehicle: saline): 0 of 6

O=[N+]([O-])c1ccc(N=NNc2ccc(N=Nc3ccccc3)cc2)cc1
survivor count [5]: 5 of 6

O=C(N/N=C\c1ccc(Cl)cc1Cl)C1CC1
survivor count (dose: 120.0 mg/kg/injection, schedule: Q01DX Z (ip), vehicle: carboxymethylcellulose (CMC)): 4 of 6 | survivor count (dose: 240.0 mg/kg/injection, schedule: Q01DX Z (oral), vehicle: carboxymethylcellulose (CMC)): 0 of 6

CSc1ncnc2c1ncn2C1CCCC1
survivor count [6]: 0 of 4

Clc1ccc(C(Cl)(Cl)Cl)cc1Cl
survivor count [7]: 0 of 6

O=Cc1c[nH]c(=O)[nH]c1=O
survivor count (dose: 400.0 mg/kg/injection, schedule: Q01DX009 (ip), vehicle: saline): 3 of 6

N#CCCCCN1C(=O)c2ccccc2C1=O
survivor count [3]: 1 of 6 | survivor count [8]: 2 of 6

CC(C)(C)N.[O]=[Cr](=[O])([OH])[OH]
survivor count (dose: 75.0 mg/kg/injection, schedule: Q01DX001 (ip), vehicle: saline): 0 of 6 | survivor count (dose: 150.0 mg/kg/injection, schedule: Q01DX001 (ip), vehicle: saline): 0 of 6 | survivor count (dose: 300.0 mg/kg/injection, schedule: Q01DX001 (ip), vehicle: saline): 0 of 6

CCCCCCCCCCCCOC(=O)OCCCCCCCCCCCC
survivor count [4]: 6 of 6

Cc1cnc(Cl)nc1N1CC1
survivor count (dose: 3.0 mg/kg/injection, schedule: Q01DX Z (ip), vehicle: methylcellulose (MC)): 0 of 6 | survivor count (dose: 6.0 mg/kg/injection, schedule: Q01DX Z (ip), vehicle: methylcellulose (MC)): 0 of 6 | survivor count (dose: 12.0 mg/kg/injection, schedule: Q01DX Z (ip), vehicle: methylcellulose (MC)): 1 of 6 | survivor count (dose: 25.0 mg/kg/injection, schedule: Q01DX Z (ip), vehicle: methylcellulose (MC)): 0 of 6 | survivor count (dose: 50.0 mg/kg/injection, schedule: Q01DX Z (ip), vehicle: methylcellulose (MC)): 0 of 6 | survivor count (dose: 100.0 mg/kg/injection, schedule: Q01DX Z (ip), vehicle: methylcellulose (MC)): 0 of 6 | survivor count (dose: 200.0 mg/kg/injection, schedule: Q01DX Z (ip), vehicle: methylcellulose (MC)): 0 of 6

O=[N+]([O-])c1cccc(O)c1
survivor count (dose: 400.0 mg/kg/injection, schedule: Q04DX003 (ip), vehicle: other): 5 of 6

Cc1cc(OC(=O)Nc2cc(Cl)ccc2C)c(C(C)C)cc1Cl
survivor count (dose: 200.0 mg/kg/injection, schedule: Q01DX009 (ip), vehicle: Klucel (hydroxypropylcellulose) (HPC)): 3 of 3

CC[C@@H](O)C[C@H]1CCC[C@@]2(C[C@@H]3OC(=O)/C=C/[C@@](C)(O)[C@@H](O)[C@H](C)[C@@H](O)[C@H](OC4CCC(N(C)C)C(C)O4)[C@@H](O)[C@](C)(O)CCCCC/C=C/[C@@H]4CC(C)(C)O[C@@]4(O)C[C@H](O2)[C@H]3C)O1 (stereo partly drawn)
survivor count (dose: 0.25 mg/kg/injection, schedule: Q01DX009 (ip), vehicle: saline with Tween-80): 0 of 6 | survivor count (dose: 0.5 mg/kg/injection, schedule: Q01DX009 (ip), vehicle: saline with Tween-80): 0 of 6 | survivor count (dose: 1.0 mg/kg/injection, schedule: Q01DX009 (ip), vehicle: saline with Tween-80): 0 of 6 | survivor count (dose: 1.45 mg/kg/injection, schedule: Q04DX003 (ip), vehicle: saline with Tween-80): 5 of 6 | survivor count (dose: 2.2 mg/kg/injection, schedule: Q04DX003 (ip), vehicle: saline with Tween-80): 0 of 6 | survivor count (dose: 3.3 mg/kg/injection, schedule: Q04DX003 (ip), vehicle: saline with Tween-80): 0 of 6

Cc1ccc(NC(=S)Nc2ccccc2)cc1
survivor count [7]: 6 of 6

S=C=NCc1ccc(Cl)c(Cl)c1
survivor count [2]: 0 of 6 | survivor count [3]: 0 of 6 | survivor count [4]: 0 of 6

CCCCCC(C)(O)CCC (stereo not drawn)
survivor count (dose: 400.0 mg/kg/injection, schedule: Q01DX001 (ip), vehicle: saline): 0 of 4

NNc1nncc(-c2ccccc2)n1
survivor count (dose: 37.0 mg/kg/injection, schedule: Q01DX001 (ip), vehicle: other): 3 of 6 | T/C (dose: 50.0 mg/kg/injection, schedule: Q01DX001 (ip), vehicle: other): 127 % of control [5 of 6 alive] | survivor count (dose: 100.0 mg/kg/injection, schedule: Q01DX001 (ip), vehicle: other): 0 of 6 | survivor count [9]: 0 of 6 | survivor count (dose: 400.0 mg/kg/injection, schedule: Q01DX001 (ip), vehicle: other): 0 of 6

CC1CC(C)CC(NC(=O)NCCCl)C1 (stereo not drawn)
survivor count [5]: 5 of 6 | survivor count (dose: 400.0 mg/kg/injection, schedule: Q01DX009 (ip), vehicle: Klucel (hydroxypropylcellulose) (HPC)): 4 of 6

CCCCc1c(N)nc(=S)[nH]c1C(=O)O
survivor count (dose: 100.0 mg/kg/injection, schedule: Q04DX003 (ip), vehicle: Klucel (hydroxypropylcellulose) (HPC)): 6 of 6 | survivor count [7]: 6 of 6

CC(C)(C)C(=O)OCn1cnc(=N)c2[nH]cnc21
survivor count [7]: 2 of 6

Cc1cc(C)c(C(=O)c2no[n+]([O-])c2C(=O)c2c(C)cc(C)c(Br)c2C)c(C)c1Br
survivor count (dose: 100.0 mg/kg/injection, schedule: Q04DX003 (ip), vehicle: saline with Tween-80): 6 of 6 | survivor count [8]: 6 of 6

c1ccc(NN(CN(Nc2ccccc2)c2ccccc2)c2ccccc2)cc1
survivor count [9]: 6 of 6

COc1cc(N(CCCl)CCCl)c(OC)cc1C=Nc1ccccc1C(=O)O
T/C (dose: 44.0 mg/kg/injection, schedule: Q01DX001 (ip), vehicle: Klucel (hydroxypropylcellulose) (HPC)): 128 % of control | T/C (dose: 44.0 mg/kg/injection, schedule: Q01DX001 (ip), vehicle: carboxymethylcellulose (CMC)): 131 and 136 % of control | T/C (dose: 66.0 mg/kg/injection, schedule: Q01DX001 (ip), vehicle: carboxymethylcellulose (CMC)): 136 % of control | T/C (dose: 100.0 mg/kg/injection, schedule: Q01DX001 (ip), vehicle: carboxymethylcellulose (CMC)): 133 and 140 % of control | survivor count (dose: 150.0 mg/kg/injection, schedule: Q01DX001 (ip), vehicle: carboxymethylcellulose (CMC)): 3 of 6 | survivor count (dose: 200.0 mg/kg/injection, schedule: Q01DX001 (ip), vehicle: carboxymethylcellulose (CMC)): 2 of 4 | survivor count [6]: 0 of 4

CC(C)[Si](F)(c1ccc(Br)cc1)C(C)C
survivor count [4]: 0 of 6

From PubChem BioAssay AID248 (DTP/NCI, 2004)
